For at least one compound, name, drawing or mass did not settle the structure.
Experiments:
[1] = system: N-Akt tumors (intrahepatic cholangiocarcinoma); experiment: N-Akt intrahepatic cholangiocarcinoma in Apo>hYAP1SA mice, doxycycline-induced hYAP1SA expression in peritumoral hepatocytes; assay type: in vivo, mouse; conditions: Apo>hYAP1SA mice with N-Akt tumors; doxycycline in drinking water from week 4 for 2 weeks
Description: For intrahepatic delivery of the transposon system (Kang et al., 2011), eight to ten-week-old mice were secured and hydrodynamically injected with 1 μg pCMV/SB11, 4 μg pSBbi-puro-myrAKT-HA, 20 μg of pSBbi-puro-myc-NICD, or 10 μg of cMyc-IRES-NRas via lateral tail vein. For the expression of SB-Cre^ERT2 or inducible Bcl2, 15 μg of pSBbi-puro-Cre^ERT2 or 10 μg of pSBTetON—RH-Flag-Bcl2, respectively, were added to the plasmid mixture. All plasmids were diluted in sterile filtered 0.9% NaCl, and the total volume was adjusted to 10% (in ml) of the total body weight (in grams).
For conditional deletion of Yap and Taz, tamoxifen was administered for 5 consecutive days, via intraperitoneal injection at a concentration of 1.6 mg/kg in corn oil. In order to activate the expression of TetON-Bcl2 or human YAP expression in Apo>hYAP^1SA mice, 0.2 mg/ml of doxycycline was diluted in filtered sterile drinking water supplemented with 2.5% sucrose and administered ad libido. Doxycycline containing water bottles were protected from light and replaced every other day.
All quantifications were performed using ImageJ software. Quantification of relative tumor area was done by measuring the tumor area (marked by HA-Akt positive cells in N-Akt model, phospho-ERK expression in Myc-Ras model or S100 expression in melanoma model) and the total area (marked by DAPI). […]

Myc-Ras HCC tumors = experiment: Myc-Ras hepatocellular carcinoma in Apo>hYAP1SA mice with rtTA and hYAP shRNAs, doxycycline-induced hYAP1SA expression; assay type: in vivo, mouse; conditions: doxycycline from 4 weeks after DNA injection, analysed two weeks later; combination of rtTA shRNA and hYAP shRNA in tumor cells

C[C@H]1c2cccc(O)c2C(=O)C2=C(O)[C@]3(O)C(=O)C(C(N)=O)=C(O)[C@@H](N(C)C)[C@@H]3[C@@H](O)[C@@H]21 [doxycycline]
reduction of tumor load compared to non-treated Apo>hYAP1SA siblings [1]: over five times reduced | HCC tumor load (Myc-Ras HCC tumors): nearly complete HCC tumor elimination

Source: patent publication US20210379088A1, “CANCER REGRESSION BY INDUCING A REGENERATION-LIKE RESPONSE” (VIB VZW, priority 2018, published 2021)
